Assay results reported in patent US12319742.
These are yes or no findings as the source states them, for the method shown. Some binding calls cover weakened binding; strength is not graded here.

Chains of the proteins cited; added tags and fusions are not shown. Residues count along the entry.
UniProt Q93038, residues 25-199: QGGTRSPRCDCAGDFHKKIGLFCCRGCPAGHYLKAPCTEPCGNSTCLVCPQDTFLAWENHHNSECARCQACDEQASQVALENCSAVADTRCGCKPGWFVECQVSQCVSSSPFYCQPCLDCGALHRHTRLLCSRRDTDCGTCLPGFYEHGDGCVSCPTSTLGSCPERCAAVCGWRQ

B1: NH24-35 (scFv, not shown: small tags and cut ends)
scFv: EVQLVESGGGSVQPGGSLRLSCAASGFTFSSYGMSWIRQAPGKGLEWVSYISSSGGHTYYADSVKGRFTISRDNAKNSLYLQMNSLRAEDTAVYYCARYSGAFDHWGQGTLVTVSSGGRGSGGGGSGSGGSDIVMTQSPSSLSASVGDRVTITCQASQDITNYLSWYQQKPGKAPKLLINDASNLETGVPSRFSGSGSGTDFTFTISSLQPEDIATYYCQQYDTLPITFGQGTRLEIKR
B2: NH24 (whole antibody) (antibody, human IgG1, kappa, V domains shown)
VH: EVQLVESGGGSVQPGGSLRLSCAASGFTFSSYGMSWIRQAPGKGLEWISYISSSGGHTYYADSVKGRFTISRDNAKNSLYLQMNSLRAEDTAVYYCARGSGSFDYWGQGTLVTVSS
VL: DIVMTQSPSSLSASVGDRVTITCQASQDITNYLSWYQQKPGKAPKLLISDASNLETGIPSRFSGSGSGTDFTFTISSLQPEDIATYYCQQYDTLPITFGQGTRLEIKR
B3: NH46 (whole antibody) (antibody, human IgG1, kappa, V domains shown)
VH: QVQLVQSGSEVKKPGASVRVSCKVSGSTVKELSMHWVRQAPGKGLEWMGGYDPEDGESIFAQKFQGRVNMTEDRSTDTAYMELSSLRSEDTAVYYCATDLNWEDAFDVWGQGTMVTVSS
VL: QSVLTQPPSVSAAPGQKVTISCSGSGSNIGNYYVAWYQQFPGTAPKLLIYDNNKRPSGIPDRFSGSKSGTSATLGITGLQTGDEADYYCGTWDTSLTAGDIYVFGTGTKVTVLR

Assays:
[1] = biological target: biotinylated recombinant human TNFRSF25-His tagged (Acro #TN5-H52H3) (human) (UniProt Q93038); assay: MSD plate binding; TNFRSF25 precoated, unpurified scFv supernatant in 2-fold serial dilutions, detection of the C-terminal myc tag
[2] = biological target: biotinylated recombinant human TNFRSF25-His tagged (Acro #TN5-H52H3) (human) (UniProt Q93038); assay: MSD competition; scFv supernatant serially diluted on TNFRSF25-coated plate, then TL1A added and the remaining TL1A detected
[3] = biological target: biotinylated recombinant human TNFRSF25-His tagged (Acro #TN5-H52H3) (human) (UniProt Q93038); assay: BLI (Octet Red 96e); biotinylated TNFRSF25-His on streptavidin sensor, 600 s association, 600 s dissociation
[4] = biological target: biotinylated recombinant human TNFRSF25-His tagged (Acro #TN5-H52H3) (human) (UniProt Q93038); assay: MSD plate binding; biotinylated recombinant human TNFRSF25 on streptavidin plate, antibody in solution, sulfo-tag anti-human Fc
[5] = biological target: biotinylated recombinant human TNFRSF25-His tagged (Acro #TN5-H52H3) (human) (UniProt Q93038); assay: MSD competition (upper panel); antibody on TNFRSF25-coated plate, wash, then TL1A-rabbit Fc at 0.4 ug/ml, sulfo-tag anti-rabbit detection

Row | Binder | binding [1] | binding [2] | binding [3] | binding [4] | binding [5]
1 | B1 | binds | binds |  |  | 
2 | B2 |  |  | binds | binds | binds
3 | B3 |  |  | binds | binds | binds
